From ChEMBL document CHEMBL3988442, “University of Dundee, Small-Polar-MMV Screening Library” (2021).

Sequences of proteins named here, by UniProt entry; tags and fusion partners are left off. Residues count along the entry.
UniProt A4I591, 1-473: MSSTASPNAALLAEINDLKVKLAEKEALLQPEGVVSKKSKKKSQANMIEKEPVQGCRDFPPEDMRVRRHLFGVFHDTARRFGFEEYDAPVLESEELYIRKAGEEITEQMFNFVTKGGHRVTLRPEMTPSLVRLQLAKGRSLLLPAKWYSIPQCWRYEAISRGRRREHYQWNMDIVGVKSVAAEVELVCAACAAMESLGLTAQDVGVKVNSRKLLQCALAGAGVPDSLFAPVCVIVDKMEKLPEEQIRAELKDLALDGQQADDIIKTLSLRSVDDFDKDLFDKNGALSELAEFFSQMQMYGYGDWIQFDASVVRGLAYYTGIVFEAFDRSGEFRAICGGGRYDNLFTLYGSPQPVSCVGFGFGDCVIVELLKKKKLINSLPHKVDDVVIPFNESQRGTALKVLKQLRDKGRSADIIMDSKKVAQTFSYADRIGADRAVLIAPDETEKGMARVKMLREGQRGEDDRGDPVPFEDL
UniProt I6X8D2, whole entry: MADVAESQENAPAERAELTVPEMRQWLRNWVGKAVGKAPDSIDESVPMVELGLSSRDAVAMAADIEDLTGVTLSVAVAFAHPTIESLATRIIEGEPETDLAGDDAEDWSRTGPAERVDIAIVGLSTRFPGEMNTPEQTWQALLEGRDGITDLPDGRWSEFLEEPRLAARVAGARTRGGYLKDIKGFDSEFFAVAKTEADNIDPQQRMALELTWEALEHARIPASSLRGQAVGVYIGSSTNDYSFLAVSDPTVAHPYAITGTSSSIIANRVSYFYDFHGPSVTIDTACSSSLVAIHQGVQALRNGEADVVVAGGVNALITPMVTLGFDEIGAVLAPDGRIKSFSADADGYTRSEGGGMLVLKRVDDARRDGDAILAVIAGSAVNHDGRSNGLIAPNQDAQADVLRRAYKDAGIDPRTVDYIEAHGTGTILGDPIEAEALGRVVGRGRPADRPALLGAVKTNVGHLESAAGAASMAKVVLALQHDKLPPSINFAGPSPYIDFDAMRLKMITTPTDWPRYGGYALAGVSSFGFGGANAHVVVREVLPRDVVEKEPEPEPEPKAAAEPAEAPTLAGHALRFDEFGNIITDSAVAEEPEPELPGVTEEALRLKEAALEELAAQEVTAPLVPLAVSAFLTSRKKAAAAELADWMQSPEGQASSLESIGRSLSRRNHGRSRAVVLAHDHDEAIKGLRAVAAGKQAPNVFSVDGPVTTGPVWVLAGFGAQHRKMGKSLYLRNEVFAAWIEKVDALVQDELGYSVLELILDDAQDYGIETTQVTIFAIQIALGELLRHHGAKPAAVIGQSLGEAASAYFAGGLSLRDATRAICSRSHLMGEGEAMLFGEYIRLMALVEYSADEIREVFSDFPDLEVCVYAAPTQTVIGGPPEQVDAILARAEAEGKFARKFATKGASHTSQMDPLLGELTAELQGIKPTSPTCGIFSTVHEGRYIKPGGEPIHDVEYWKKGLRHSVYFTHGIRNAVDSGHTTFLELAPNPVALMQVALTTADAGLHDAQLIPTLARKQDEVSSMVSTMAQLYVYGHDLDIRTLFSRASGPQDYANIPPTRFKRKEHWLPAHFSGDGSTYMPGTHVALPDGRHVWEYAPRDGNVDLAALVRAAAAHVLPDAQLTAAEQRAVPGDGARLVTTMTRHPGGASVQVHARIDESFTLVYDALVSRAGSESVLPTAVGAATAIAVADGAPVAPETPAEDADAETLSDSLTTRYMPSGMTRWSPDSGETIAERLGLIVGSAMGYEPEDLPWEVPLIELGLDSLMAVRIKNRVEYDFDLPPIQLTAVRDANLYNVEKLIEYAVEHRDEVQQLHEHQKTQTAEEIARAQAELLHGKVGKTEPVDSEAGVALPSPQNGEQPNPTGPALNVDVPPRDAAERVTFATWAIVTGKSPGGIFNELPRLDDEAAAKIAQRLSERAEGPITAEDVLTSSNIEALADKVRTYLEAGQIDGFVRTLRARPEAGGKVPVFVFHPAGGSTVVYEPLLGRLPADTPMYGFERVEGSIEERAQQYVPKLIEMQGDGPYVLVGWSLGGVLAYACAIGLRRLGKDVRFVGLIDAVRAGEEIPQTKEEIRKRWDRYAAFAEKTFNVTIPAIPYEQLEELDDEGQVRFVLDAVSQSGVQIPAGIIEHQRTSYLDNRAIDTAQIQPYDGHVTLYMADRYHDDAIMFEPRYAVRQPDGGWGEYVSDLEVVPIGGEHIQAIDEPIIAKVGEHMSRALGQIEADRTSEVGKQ

Leishmania in macrophages: 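Cell assay of Leishmania donovani living inside macrophages; the read-out is not stated. Concentration: 30 µM. Higher reads as stronger inhibition (inferred: compounds with an IC50 in retests scored well above the rest). Size under these conditions: about 69,000 compounds, about 1,000 of them at 50% or above in at least one test.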
LiHisRS: 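Enzyme assay of histidyl-tRNA synthetase; the read-out is not stated. Target: Histidine-tRNA ligase, Leishmania infantum (UniProt A4I591). Concentration: 30 µM. Higher reads as stronger inhibition (inferred: compounds with an IC50 in retests scored well above the rest). The assay is labelled LdHisRS but filed under L. infantum. Size under these conditions: about 69,000 compounds, about 410 of them at 50% or above in at least one test.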
Pks13 thioesterase: 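Enzyme assay of the thioesterase domain of polyketide synthase 13; the read-out is not stated. Target: Polyketide synthase Pks13, Mycobacterium tuberculosis (UniProt I6X8D2). Tested at 30 µM. Higher reads as stronger inhibition (inferred from which compounds were picked for retests). Size under these conditions: about 67,000 compounds, about 300 of them at 50% or above in at least one test.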

Each number is a percent effect as filed. The record does not define 0% and 100%; most values in the screen are far below 50% and negative numbers occur (in some assays of this library far below -100). The compounds are a random part of those screened. Two or more numbers in one place are separate tests of the same structure; such repeats can differ widely. A dash means the value is not listed here; it may have been measured.

Compound	Leishmania in macrophages	LiHisRS	Pks13 thioesterase
NC(=O)c1ccnc(N2CCN(Cc3ccc(F)cc3Cl)CC2)c1	42.14	23.29	-30.54
Cc1nc(C)c(C(=O)NCCNc2ncccc2C(F)(F)F)s1	15.32	7.895	0.07948
Cc1cccc(C(=O)NC2CCN(c3cnn(C)c3)C2=O)c1C (centres unmarked)	21.15	14.75	-36.26
CC(=O)N1CCO[C@@H]2CN(Cc3ccccc3F)C[C@@H]2C1	-	2.703	-6.577
COCCN1CCN(C)C2(CCN(C(=O)c3ccnnc3)CC2)C1=O	-	3.509	-8.107
CC(C)Cc1ncc2c(n1)CN(C(=O)c1ccc(Cn3ccnc3)o1)C2	4.269	8.333	-42.09
CN(C)C(=O)N1CCC2(CC1)NC(=O)c1ccccc12	-	18.97	-41.09
CC(=O)N(C)C(c1cccc(F)c1)c1ccccn1 (centres unmarked)	-21.3	11.54	-20.9
O=C1NCCN1C1CCN(Cc2nc(-c3ccsc3)no2)CC1	51.47	13.91	-13.6
O=C(O)C(F)(F)F.O=C1COC2(CCN(Cc3cccs3)CC2)CN1c1cncnc1	38.64	-	-
CCc1nc(C2CCCN2Cc2ccn(C)c(=O)c2)no1 (centres unmarked)	-1.043	8.333	-13.12
CCc1ccc(S(=O)(=O)Nc2ccn(CC(=O)OC)n2)cc1	3.087	21.43	-11.01
[H][C@]12CCN(S(=O)(=O)CC(C)C)CC[C@@]1([H])S(=O)(=O)CCN2C(C)=O	9.805 and 15.94	-	-
[H][C@]12CC[C@]([H])(CN(Cc3cccnc3N)C1)N(Cc1c(C)noc1C)C2=O	24.35	-	-
CN1C(=O)CC[C@@H]2N(C(=O)CCc3cccnc3)CCCC[C@@]21C	-	14.29	-
O=C(NCCO)C1CN(c2cncnc2)CCO1 (centres unmarked)	19.87 and 16.31	-1.053	8.684
O=C(CC1CC1)NC1CCc2c(ccc(=O)n2CC2CC2)C1 (centres unmarked)	22.01	19.66	-22.8
c1ccc(CN2CCC(NCCc3ccc4c(c3)CCO4)CC2)nc1	21.81	-1.667	-0.8084
CCC(=O)Nc1cccc(OCC(=O)N2CC=CC2C(C)C)c1 (centres unmarked)	-38.71	13.25	-17.29
Cc1ccc(F)c2c1CCCN2C(=O)c1cn(CC(=O)N(C)C)nn1	-8.705	2.174	1.612
CC(C)N(C)Cc1cnc2n1CCN(C(=O)c1cccs1)C2	38.26	2.941	-
Nc1ccc(-c2cnc(C3CCCN3)cn2)cn1 (centres unmarked)	-	14.49	35.24
CS(=O)(=O)c1ccc(NC(=O)CSc2ccc3c(c2)CCC3)cn1	16.85	11.61	4.065
COC[C@]12COC[C@H]1CN(S(=O)(=O)c1cccnc1)C2	-	14.04	-23.81
O=C(C1CC(F)(F)C1)N1C[C@@H]2CN(Cc3ccsc3)CCO[C@@H]2C1	-	15	2.673
[H][C@@]12CN(CCO)C[C@]1([H])C(=O)N(Cc1ccc(OC)cc1)C2	-1.615	-	-
CN(CCN1CCOCC1)C(=O)C1(c2ccc(F)cc2F)CCC1	-8.926	8.219	-20.66
O=C(Cc1cccs1)N1CCC2(CC1)COCCN2CC1CC1	-	18	-22.35
CC(C)C(=O)NCCNC(=O)CCOc1cccc(F)c1	17.01	3.67	-19.13
COCCC(=O)N1CCC2(COCc3cnc(N(C)C)nc32)C1 (centres unmarked)	-4.15	16	1.881
COc1cc2c(c(OC)c1OC)CCN(CCn1nc(C)cc1C)CC2	-34.77	2.041	-6.474
COc1ncccc1C(=O)N1CC[C@]2(C[C@@H](Oc3cccnc3)CO2)C1.O=C(O)C(F)(F)F.O=C(O)C(F)(F)F	31.08	-	-
Cc1nc2cc(F)cc(C(=O)N3CCN(CCO)CC3)c2nc1C	-49.93	9.821	-8.504
CCOC1COC2(CCN(Cc3ccc(C)cc3)CC2)C1.O=C(O)C(F)(F)F (centres unmarked)	11.31	-	-
CNC(=O)c1cccc(NC(=O)Cn2nc(-c3cccs3)oc2=O)c1	4.187	24.62	-20.82
CC(=O)NC1(C(=O)N(C)Cc2c(C)noc2C)CCCCC1	-23.7	2.381	14.47
O=C(c1ccc2ncsc2c1)N1CCC(C(=O)O)(n2cccn2)CC1	12.86	-5.714	-21.85
N#CCCSc1nnc(Cc2ccccc2F)o1	1.352	21.43	-18.25
O=C(NCC1CC1)C1CN(c2ncccn2)Cc2ccnn2C1 (centres unmarked)	-	5.556	-6.075
CS(=O)(=O)NC(=O)c1cnc2c(cnn2C2CCCC2)c1	33.8	7.692	-15.78
CN(C)Cc1noc2c1CN(Cc1ccsc1)CC2	-	18.8	-32.93
COc1cccc(CNc2nc(N3CCOCC3)ns2)c1OC	-14.19	13.51	12.38

For reference, 3 entries once more:

Compound,Leishmania in macrophages,LiHisRS,Pks13 thioesterase
CC(C)N(C)Cc1cnc2n1CCN(C(=O)c1cccs1)C2,38.26,2.941,-
COc1cccc(CNc2nc(N3CCOCC3)ns2)c1OC,-14.19,13.51,12.38
O=C1NCCN1C1CCN(Cc2nc(-c3ccsc3)no2)CC1,51.47,13.91,-13.6